This data set deals with normal human volunteers. Put plainly: Renal function and plasma volume in normal human volunteers (Example 4). The conditions noted are these: single I.V. dose 2.5 mg/kg, then 200 mg t.i.d. for 5 days.

For the compound `CSc1ccc(C(=O)c2[nH]c(=O)[nH]c2C)cc1` [Enoximone, 1,3-Dihydro-4-methyl-5-[4-(methylthio)benzoyl]-2H-imidazol-2-one], the “change of plasma volume from baseline” value stood at 327 ± 135.9 mL. In addition, the “plasma volume after treatment (RISA method)” value (baseline 1573+/−149.5 ml) was found to be 1900 ± 79.9 mL.

Source of the values: US20060292213A1, “Enoximone formulations and their use in the treatment of PDE-III mediated diseases” (Myogen, Inc., priority 2004, published 2006).
